# The list does not hold the whole screen: it is rich in T/C values a quarter to a half above the control, in often repeated tests (any T/C) and in doses without a T/C. Further doses and runs are listed elsewhere. T/C: endpoint of the treated group in % of that of the vehicle group. Some doses have a count of surviving animals in place of a T/C: the source files T/C as zero there, which appears to mark a toxic dose or a test without result, not a measured value. Some survivor counts are full or nearly so, which does not show that the dose was tolerated: the source hardly ever lists a survival T/C far under the control, and the zero likely stands for such cases as well. Counts of survivors are from the toxicity check (mostly the fifth day) where no day follows; animals may have died later. Schedules are NCI's codes, taken here to give the interval after Q, in days (D) or hours (H), and the number of doses after X. Some entries hold several experiments; the values are given in rising order. Where survival is the endpoint, the PubChem record calls one and a half times the control and up active, and a quarter to a half above the control has no call in these data; cut-offs in other NCI protocols can differ. Counts like (3×) count equal records among those shown.
# Test system: P388 leukemia ip, CD2F1 mice, survival T/C
# Experiment: NCI In Vivo Anticancer Drug Screen. Data for tumor model P388 Leukemia (intraperitoneal) in CD2F1 (CDF1) mice
# Details: T/C endpoint: median survival time, higher T/C = longer survival
# [1] = dose: 50.0 mg/kg/injection, schedule: Q01DX009 (ip), vehicle: saline with Tween-80
# [2] = dose: 100.0 mg/kg/injection, schedule: Q01DX009 (ip), vehicle: saline with Tween-80
# [3] = dose: 200.0 mg/kg/injection, schedule: Q01DX009 (ip), vehicle: saline with Tween-80
# [4] = dose: 40.0 mg/kg/injection, schedule: Q01DX009 (ip), vehicle: carboxymethylcellulose (CMC)
# [5] = dose: 200.0 mg/kg/injection, schedule: Q01DX005 (ip), vehicle: saline
# [6] = dose: 12.5 mg/kg/injection, schedule: Q01DX009 (ip), vehicle: saline
compound,measurement,setting,value
O=C1C=CC(=O)c2c(O)cccc21,survivor count,"dose: 3.0 mg/kg/injection, schedule: Q01DX009 (ip), vehicle: saline with Tween-80",5 of 6
same,survivor count,"dose: 6.25 mg/kg/injection, schedule: Q01DX009 (ip), vehicle: saline with Tween-80",0 of 3 and 2 of 6
same,survivor count,"dose: 12.5 mg/kg/injection, schedule: Q01DX009 (ip), vehicle: saline with Tween-80","0 of 3, 0 of 6, 3 of 6"
same,survivor count,"dose: 25.0 mg/kg/injection, schedule: Q01DX009 (ip), vehicle: saline with Tween-80",0 of 3 and 1 of 6
same,survivor count,[1],0 of 6
CC(C)COC1CC(C)(C)c2c(-c3ccccc3)nn(-c3ccccc3)c2O1 (stereo not drawn),survivor count,[2],6 of 6
same,survivor count,[3],1 of 6
COC(=O)C1C(C2OC3OC(C)(C)OC3C3OC(C)(C)OC32)N1C(=O)Cl (stereo not drawn),survivor count,"dose: 400.0 mg/kg/injection, schedule: Q04DX002 (ip), vehicle: saline with Tween-80",4 of 6
CON(Cc1ccc(C(=O)NC(C)C)cc1)Cc1ccc(C(=O)NC(C)C)cc1,survivor count,"dose: 12.5 mg/kg/injection, schedule: Q01DX009 (ip), vehicle: other",6 of 6
same,survivor count,"dose: 200.0 mg/kg/injection, schedule: Q01DX009 (ip), vehicle: other",6 of 6
COc1ccc(CCN2COc3ccc4ccc(=O)oc4c3C2)cc1OC,T/C,[3],130 % of control
C=CC(C)(C)n1cc(C2=C(O)C(=O)C(c3cn(C(C)(C)C=C)c4ccccc34)=C(O)C2=O)c2ccccc21,survivor count,"dose: 2.5 mg/kg/injection, schedule: Q01DX009 (ip), vehicle: carboxymethylcellulose (CMC)",6 of 6
same,survivor count,"dose: 5.0 mg/kg/injection, schedule: Q01DX009 (ip), vehicle: carboxymethylcellulose (CMC)",6 of 6
same,survivor count,"dose: 10.0 mg/kg/injection, schedule: Q01DX009 (ip), vehicle: carboxymethylcellulose (CMC)",6 of 6
same,survivor count,"dose: 20.0 mg/kg/injection, schedule: Q01DX009 (ip), vehicle: carboxymethylcellulose (CMC)",6 of 6
same,T/C,[4],130 % of control
same,survivor count,[4],6 of 6
same,T/C,"dose: 60.0 mg/kg/injection, schedule: Q01DX009 (ip), vehicle: Klucel (hydroxypropylcellulose) (HPC)",133 % of control
O=C(c1cccs1)C1SC(C(=O)c2cccs2)C2(O)c3cccc4cccc(c34)C12O (stereo not drawn),survivor count,"dose: 15.0 mg/kg/injection, schedule: Q01DX009 (ip), vehicle: Klucel (hydroxypropylcellulose) (HPC)",6 of 6
same,survivor count,"dose: 30.0 mg/kg/injection, schedule: Q01DX009 (ip), vehicle: Klucel (hydroxypropylcellulose) (HPC)",6 of 6
NC(CO)C(=O)NC(CCC(=O)O)C(=O)NC(CO)C(=O)NC(CCC(=O)O)C(=O)NC(Cc1ccc(N(CCCl)CCCl)cc1)C(=O)O (stereo not drawn),T/C,"dose: 160.0 mg/kg/injection, schedule: Q04DX003 (ip), vehicle: water",128 % of control
C=CCN(CC=C)C(N)=Nc1ccc(Cl)cc1,survivor count,"dose: 50.0 mg/kg/injection, schedule: Q01DX009 (ip), vehicle: saline",0 of 6
same,survivor count,"dose: 100.0 mg/kg/injection, schedule: Q01DX009 (ip), vehicle: saline",0 of 6
same,survivor count,"dose: 200.0 mg/kg/injection, schedule: Q01DX009 (ip), vehicle: saline",0 of 6
CN1c2cc3ccccc3cc2N(C)c2cc3ccccc3cc21,survivor count,"dose: 100.0 mg/kg/injection, schedule: Q01DX005 (ip), vehicle: Klucel (hydroxypropylcellulose) (HPC)",6 of 6
CCN(CC)C(C)COC(=O)c1ccc(N)cc1 (stereo not drawn),survivor count,"dose: 25.0 mg/kg/injection, schedule: Q01DX009 (ip), vehicle: saline",6 of 6
C=C1CC[N+]2(CCCC)CCCC12 (stereo not drawn),survivor count,"dose: 60.0 mg/kg/injection, schedule: Q01DX005 (ip), vehicle: saline",0 of 6
same,survivor count,"dose: 120.0 mg/kg/injection, schedule: Q01DX005 (ip), vehicle: saline",0 of 6
same,survivor count,"dose: 240.0 mg/kg/injection, schedule: Q01DX005 (ip), vehicle: saline",0 of 6
O=Nc1sc(=S)n(N2CCCCC2)c1O,survivor count,"dose: 200.0 mg/kg/injection, schedule: Q01DX005 (ip), vehicle: Klucel (hydroxypropylcellulose) (HPC)",4 of 6
NCCCNc1cc(O)cc2cccnc12,survivor count,[5],2 of 5
CCc1cccc(CC)c1NC(=O)OCCN(CC)CC,survivor count,"dose: 240.0 mg/kg/injection, schedule: Q01DX005 (ip), vehicle: saline with Tween-80",0 of 6
CN(C)CCCN1c2ccccc2Oc2ccc(Cl)cc21,survivor count,[5],1 of 6
Cc1ccc(O)c(C(c2cc(C)ccc2O)c2cc(C)ccc2O)c1,survivor count,[2],6 of 6
same,survivor count,[3],0 of 6
CC(=O)O[C@H]1C(=O)[C@]2(C)[C@@H](OC(C)=O)CC3OC[C@@]3(OC(C)=O)[C@H]2[C@H](OC(=O)c2ccccc2)[C@]2(O)C[C@H](OC(=O)[C@H](OC(C)=O)[C@@H](NC(=O)c3ccccc3)c3ccccc3)C(C)=C1C2(C)C (stereo partly drawn),T/C,"dose: 20.0 mg/kg/injection, schedule: Q01DX005 (ip), vehicle: DMSO",132 % of control
same,T/C,"dose: 200.0 mg/kg/injection, schedule: Q01DX005 (ip), vehicle: DMSO",137 % of control
CN(C)CC[CH2][Sn]([CH3])([Br])[Br],survivor count,"dose: 1.56 mg/kg/injection, schedule: Q01DX009 (ip), vehicle: saline",6 of 6
same,T/C,"dose: 3.12 mg/kg/injection, schedule: Q01DX009 (ip), vehicle: saline","100, 106, 107, 114 % of control"
same,T/C,"dose: 6.25 mg/kg/injection, schedule: Q01DX009 (ip), vehicle: saline","97, 103, 107 % of control (2×)"
same,T/C,[6],"103, 113, 120 % of control"
same,survivor count,[6],5 of 6
same,survivor count,"dose: 50.0 mg/kg/injection, schedule: Q01DX009 (ip), vehicle: methylcellulose (MC)",0 of 6
same,survivor count,"dose: 100.0 mg/kg/injection, schedule: Q01DX009 (ip), vehicle: methylcellulose (MC)",0 of 6
same,survivor count,"dose: 200.0 mg/kg/injection, schedule: Q01DX009 (ip), vehicle: methylcellulose (MC)",0 of 6
OCC1OC(n2nc(Cl)c3ccccc32)C(O)C1O (stereo not drawn),T/C,"dose: 32.0 mg/kg/injection, schedule: Q01DX002 (ip), vehicle: saline with Tween-80",129 % of control
same,survivor count,[1],6 of 6
CCOCc1ccc(C(=O)NCCCc2c(-c3ccccc3)nc(N)[nH]c2=O)cc1,survivor count,"dose: 7.5 mg/kg/injection, schedule: Q01DX005 (ip), vehicle: Klucel (hydroxypropylcellulose) (HPC)",6 of 6
same,survivor count,"dose: 30.0 mg/kg/injection, schedule: Q01DX005 (ip), vehicle: Klucel (hydroxypropylcellulose) (HPC)",6 of 6
same,survivor count,"dose: 60.0 mg/kg/injection, schedule: Q01DX005 (ip), vehicle: Klucel (hydroxypropylcellulose) (HPC)",6 of 6
same,survivor count,"dose: 120.0 mg/kg/injection, schedule: Q01DX005 (ip), vehicle: Klucel (hydroxypropylcellulose) (HPC)",6 of 6
Nc1ccc(-c2nc3ccccc3c(=O)[nH]2)cc1,T/C,"dose: 50.0 mg/kg/injection, schedule: Q01DX009 (ip), vehicle: Klucel (hydroxypropylcellulose) (HPC)","91, 92, 95, 111 % of control"
same,survivor count,"dose: 200.0 mg/kg/injection, schedule: Q01DX009 (ip), vehicle: Klucel (hydroxypropylcellulose) (HPC)",4 of 6 and 6 of 6

# Reference: PubChem BioAssay AID330 (DTP/NCI, 2004)
